These results are taken from PubChem BioAssay AID248 (DTP/NCI, 2004).

This assay concerns L1210 leukemia ip in BDF1 mice, survival T/C. Briefly: NCI In Vivo Anticancer Drug Screen. Data for tumor model L1210 Leukemia (intraperitoneal) in B6D2F1 (BDF1) mice. The conditions noted are these: T/C endpoint: mean survival time, higher T/C = longer survival.
Setting [1] is: dose: 200.0 mg/kg/injection, schedule: Q04DX003 (ip), vehicle: Klucel (hydroxypropylcellulose) (HPC).
The mark [2] stands for this setting: dose: 400.0 mg/kg/injection, schedule: Q01DX001 (ip), vehicle: carboxymethylcellulose (CMC).
Where [3] appears, read: dose: 400.0 mg/kg/injection, schedule: Q01DX009 (ip), vehicle: Klucel (hydroxypropylcellulose) (HPC).
[4] abbreviates: dose: 200.0 mg/kg/injection, schedule: Q01DX001 (ip), vehicle: saline.
The mark [5] stands for this setting: dose: 400.0 mg/kg/injection, schedule: Q01DX001 (ip), vehicle: saline.
The mark [6] stands for this setting: dose: 400.0 mg/kg/injection, schedule: Q04DX003 (ip), vehicle: Klucel (hydroxypropylcellulose) (HPC).
Where [7] appears, read: dose: 80.0 mg/kg/injection, schedule: Q01DX001 (ip), vehicle: saline.
The mark [8] stands for this setting: dose: 200.0 mg/kg/injection, schedule: Q01DX009 (ip), vehicle: saline.

The list shows only some results of the screen, not a fair sample: it gathers tests that were run many times, whatever their T/C, doses with no T/C, and many T/C values between a quarter and a half above the control. Other doses and runs of a compound stand elsewhere. T/C is the treated group as % of the vehicle group. Some doses have a count of surviving animals in place of a T/C: the source files T/C as zero there, which appears to mark a toxic dose or a test without result, not a measured value. Some survivor counts are full or nearly so, which does not show that the dose was tolerated: the source hardly ever lists a survival T/C far under the control, and the zero likely stands for such cases as well. Survivors were counted at the toxicity check, usually on the fifth day, unless a day is given; later deaths do not show. Schedule codes are those of the source, taken here to give the interval after Q, in days (D) or hours (H), and the number of doses after X. Some doses were run more than once; their values stand side by side, smallest first. Where survival is the endpoint, the PubChem record calls one and a half times the control and up active, and a quarter to a half above the control has no call in these data; cut-offs in other NCI protocols can differ. Some T/C values carry the count of animals alive at the toxicity check (mostly the fifth day); without a count, all were alive then.

Turning to `N#CC(C#N)=Cc1cccc([N+](=O)[O-])c1`, the survivor count by setting is: (dose: 200.0 mg/kg/injection, schedule: Q01DX001 (ip), vehicle: carboxymethylcellulose (CMC)) 1 of 4; (dose: 200.0 mg/kg/injection, schedule: Q01DX009 (ip), vehicle: Klucel (hydroxypropylcellulose) (HPC)) 1 of 6; under setting [1], 2 of 6; under setting [2], 0 of 4; under setting [3], 1 of 6.

As to `CCC(C)(C(=O)O)C(=O)O`, the survivor count is listed as 1 of 4 under setting [4] and 0 of 4 under setting [5].

For the compound `CC(C)CC(N)C(=O)NCCCCCCNCCCCCCNC(=O)C(N)CC(C)C` (stereo not drawn), the survivor count under setting [5] is given as 0 of 4.

On to `Cc1ccc(/C=C/[N+](=O)[O-])cc1`, for which the survivor count runs as follows: (dose: 100.0 mg/kg/injection, schedule: Q04DX003 (ip), vehicle: Klucel (hydroxypropylcellulose) (HPC)) 6 of 6; under setting [1], 6 of 6; under setting [6], 0 of 6.

For the compound `CC1SC(=S)N(c2ccc(Cl)cc2)C1=O` (stereo not drawn), the survivor count runs as follows: under setting [3], 0 of 6; under setting [6], 6 of 6.

Regarding `Cn1cncc1CC1COC(=O)C1C(O)c1ccccc1` (stereo not drawn), the survivor count under setting [5] is listed as 2 of 6.

Take `CCC1CC(C#N)C(=O)NC1=O` (stereo not drawn): the survivor count is 5 of 6 (dose: 50.0 mg/kg/injection, schedule: Q04DX003 (ip), vehicle: saline); 0 of 7 (dose: 100.0 mg/kg/injection, schedule: Q01DX001 (ip), vehicle: Klucel (hydroxypropylcellulose) (HPC)); 0 of 7 (dose: 200.0 mg/kg/injection, schedule: Q01DX001 (ip), vehicle: Klucel (hydroxypropylcellulose) (HPC)); 0 of 7 (dose: 400.0 mg/kg/injection, schedule: Q01DX001 (ip), vehicle: Klucel (hydroxypropylcellulose) (HPC)).

For `COC(=O)CC1OCC=C2CN3CCC45C6=CC(=O)C(=O)C([N+](=O)[O-])=C6NC4C1C2CC35` (stereo not drawn), the survivor count (dose: 20.0 mg/kg/injection, schedule: Q01DX001 (ip), vehicle: saline) is reported as 1 of 6; the survivor count (dose: 40.0 mg/kg/injection, schedule: Q01DX001 (ip), vehicle: saline) was 0 of 6; the survivor count under setting [7] was 0 of 6.

As to `O=[N+]([O-])c1ccc(C2=CSC3=NCCN23)cc1`, the survivor count was 1 of 4 under setting [7]; 0 of 6 (dose: 100.0 mg/kg/injection, schedule: Q01DX001 (ip), vehicle: saline); 3 of 6 and 2 of 3 (dose: 100.0 mg/kg/injection, schedule: Q01DX009 (ip), vehicle: saline); 0 of 6 under setting [4]; 0 of 6 under setting [8]; 0 of 6 under setting [5]. Further, the survivor count (dose: 400.0 mg/kg/injection, schedule: Q01DX009 (ip), vehicle: saline) is given as 0 of 6.

Regarding `CCCNC`, the survivor count under setting [8] was 0 of 6 and the survivor count (dose: 400.0 mg/kg/injection, schedule: Q04DX003 (ip), vehicle: saline) is reported as 1 of 6.

Consider `CN(C)N=Nc1ccccc1`, for which the T/C is, setting by setting: (dose: 16.0 mg/kg/injection, schedule: Q03HX024 (ip), vehicle: other) 125 % of control; (dose: 25.0 mg/kg/injection, schedule: Q04DX003 (ip), vehicle: saline with Tween-80) 129 % of control; (dose: 30.0 mg/kg/injection, schedule: Q01DX015 (ip), vehicle: carboxymethylcellulose (CMC)) 134 % of control; (dose: 32.0 mg/kg/injection, schedule: Q03HX008 (ip), vehicle: other) 131 % of control; (dose: 32.0 mg/kg/injection, schedule: Q03HX016 (ip), vehicle: other) 127 % of control; (dose: 50.0 mg/kg/injection, schedule: Q04DX003 (ip), vehicle: saline with Tween-80) 132 % of control. Moreover, the T/C (dose: 54.0 mg/kg/injection, schedule: Q01DX015 (ip), vehicle: carboxymethylcellulose (CMC)) was 136 % of control; the T/C (dose: 60.0 mg/kg/injection, schedule: Q01DX015 (ip), vehicle: carboxymethylcellulose (CMC)) is 129 % of control; the T/C (dose: 64.0 mg/kg/injection, schedule: Q01DX009 (sc), vehicle: other) is 142 % of control; the T/C (dose: 64.0 mg/kg/injection, schedule: Q04DX003 (ip), vehicle: saline) is 134 % of control; the T/C (dose: 80.0 mg/kg/injection, schedule: Q01DX015 (ip), vehicle: carboxymethylcellulose (CMC)) is 137 % of control; the T/C (dose: 90.0 mg/kg/injection, schedule: Q01DX015 (ip), vehicle: carboxymethylcellulose (CMC)) is 129 % of control [5 of 6 alive]. Also, the T/C (dose: 125.0 mg/kg/injection, schedule: Q01DX001 (ip), vehicle: saline with Tween-80) was 128 % of control; the T/C (dose: 128.0 mg/kg/injection, schedule: Q04DX003 (ip), vehicle: other) was 147 % of control; the T/C (dose: 128.0 mg/kg/injection, schedule: Q08DX002 (ip), vehicle: other) was 130 % of control; the T/C (dose: 256.0 mg/kg/injection, schedule: Q01DX001 (oral), vehicle: other) is 132 % of control [9 of 10 alive]. Moreover, the survivor count (dose: 64.0 mg/kg/injection, schedule: Q01DX005 (iv), vehicle: other) was 6 of 10; the survivor count (dose: 120.0 mg/kg/injection, schedule: Q01DX015 (ip), vehicle: carboxymethylcellulose (CMC)) was 1 of 6, 2 of 6, 6 of 6; the survivor count (dose: 128.0 mg/kg/injection, schedule: Q01DX005 (iv), vehicle: other) is recorded as 0 of 10; the survivor count (dose: 128.0 mg/kg/injection, schedule: Q01DX009 (ip), vehicle: other) was 3 of 10; the survivor count (dose: 128.0 mg/kg/injection, schedule: Q01DX009 (sc), vehicle: other) is given as 9 of 10; the survivor count (dose: 128.0 mg/kg/injection, schedule: Q04DX003 (ip), vehicle: saline) is recorded as 6 of 6. Moreover, the survivor count (dose: 200.0 mg/kg/injection, schedule: Q04DX003 (ip), vehicle: saline with Tween-80) is on record as 1 of 10; the survivor count (dose: 250.0 mg/kg/injection, schedule: Q01DX001 (ip), vehicle: saline with Tween-80) is 0 of 10; the survivor count (dose: 256.0 mg/kg/injection, schedule: Q01DX001 (ip), vehicle: other) is listed as 3 of 10; the survivor count (dose: 256.0 mg/kg/injection, schedule: Q01DX009 (oral), vehicle: other) is reported as 0 of 10; the survivor count (dose: 256.0 mg/kg/injection, schedule: Q04DX003 (ip), vehicle: other) was 6 of 10; the survivor count (dose: 256.0 mg/kg/injection, schedule: Q04DX003 (ip), vehicle: saline) is 0 of 6. For the same compound, the survivor count runs as follows: (dose: 256.0 mg/kg/injection, schedule: Q08DX002 (ip), vehicle: other) 3 of 10; under setting [2], 0 of 4; (dose: 512.0 mg/kg/injection, schedule: Q01DX001 (oral), vehicle: other) 0 of 10; (dose: 512.0 mg/kg/injection, schedule: Q01DX009 (oral), vehicle: other) 0 of 10; (dose: 1024.0 mg/kg/injection, schedule: Q01DX001 (oral), vehicle: other) 0 of 10.

Turning to `O=C1SC(c2ccccc2)(c2ccccc2)c2cscc21`, the survivor count (dose: 200.0 mg/kg/injection, schedule: Q01DX009 (ip), vehicle: saline with Tween-80) is reported as 3 of 3.

As for `O=C(O/N=C1\C2CCC(C2)C1Cl)c1ccc([N+](=O)[O-])cc1` (stereo not drawn), the survivor count runs as follows: (dose: 100.0 mg/kg/injection, schedule: Q01DX009 (ip), vehicle: saline with Tween-80) 1 of 6; under setting [1], 2 of 6; under setting [6], 2 of 6.

In the case of `C=CCC1(CCCC)C(=O)NC(=O)NC1=O`, where the note is “dose: 300.0 mg/kg/injection, schedule: Q01DX001 (ip), vehicle: saline”, the survivor count is 1 of 6.
